The target in this experiment is Flag-pro-C3 (full-length single chain human pro-C3 with a Flag-tag at its C-terminal) (human) (UniProt P01024). Kind of experiment: pull-down.

By UniProt entry, the sequences of proteins in these tests, tags left out. Residues count along the entry.
UniProt P01024, residues 23-1663: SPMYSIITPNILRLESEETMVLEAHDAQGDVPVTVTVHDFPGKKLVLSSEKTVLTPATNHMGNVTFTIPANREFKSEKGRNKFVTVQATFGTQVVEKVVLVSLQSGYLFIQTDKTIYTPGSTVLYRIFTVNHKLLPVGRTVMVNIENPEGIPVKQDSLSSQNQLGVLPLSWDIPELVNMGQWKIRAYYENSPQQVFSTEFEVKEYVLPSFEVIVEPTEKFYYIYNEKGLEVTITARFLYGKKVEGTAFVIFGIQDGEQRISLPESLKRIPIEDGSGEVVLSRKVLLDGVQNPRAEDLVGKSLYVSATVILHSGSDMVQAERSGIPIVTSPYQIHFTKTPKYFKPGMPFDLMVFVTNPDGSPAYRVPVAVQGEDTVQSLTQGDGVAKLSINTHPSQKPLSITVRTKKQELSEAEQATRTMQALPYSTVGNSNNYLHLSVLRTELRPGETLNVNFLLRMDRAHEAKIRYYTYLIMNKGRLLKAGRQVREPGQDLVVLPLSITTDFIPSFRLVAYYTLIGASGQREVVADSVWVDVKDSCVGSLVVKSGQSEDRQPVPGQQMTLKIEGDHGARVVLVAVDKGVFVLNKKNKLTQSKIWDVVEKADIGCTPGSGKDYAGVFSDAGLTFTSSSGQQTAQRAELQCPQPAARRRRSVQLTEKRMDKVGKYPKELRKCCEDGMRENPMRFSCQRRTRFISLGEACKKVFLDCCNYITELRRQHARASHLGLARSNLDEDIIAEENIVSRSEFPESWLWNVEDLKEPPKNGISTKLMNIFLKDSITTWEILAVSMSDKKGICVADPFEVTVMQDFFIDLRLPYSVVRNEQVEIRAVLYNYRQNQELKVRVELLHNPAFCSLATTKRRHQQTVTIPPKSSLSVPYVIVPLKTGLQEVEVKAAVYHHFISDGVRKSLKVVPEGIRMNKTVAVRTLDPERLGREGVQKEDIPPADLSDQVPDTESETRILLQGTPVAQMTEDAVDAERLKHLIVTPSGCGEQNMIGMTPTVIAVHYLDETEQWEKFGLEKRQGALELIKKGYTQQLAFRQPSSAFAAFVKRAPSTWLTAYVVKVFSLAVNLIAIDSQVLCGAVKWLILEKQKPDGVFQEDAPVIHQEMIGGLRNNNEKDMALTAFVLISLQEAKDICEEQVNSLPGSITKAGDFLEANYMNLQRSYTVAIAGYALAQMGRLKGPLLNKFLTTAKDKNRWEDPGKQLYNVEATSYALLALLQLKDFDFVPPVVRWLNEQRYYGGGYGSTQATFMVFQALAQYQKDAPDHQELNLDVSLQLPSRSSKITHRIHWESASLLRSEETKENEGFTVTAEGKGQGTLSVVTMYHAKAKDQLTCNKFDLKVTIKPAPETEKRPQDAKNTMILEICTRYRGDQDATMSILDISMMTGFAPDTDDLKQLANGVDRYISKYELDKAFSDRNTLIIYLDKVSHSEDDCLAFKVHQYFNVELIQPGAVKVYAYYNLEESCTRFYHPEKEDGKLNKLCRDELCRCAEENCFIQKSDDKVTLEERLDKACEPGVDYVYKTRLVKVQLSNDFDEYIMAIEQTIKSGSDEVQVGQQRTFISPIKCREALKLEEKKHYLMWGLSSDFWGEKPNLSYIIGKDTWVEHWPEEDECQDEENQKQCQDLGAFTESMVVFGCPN
UniProt P99999: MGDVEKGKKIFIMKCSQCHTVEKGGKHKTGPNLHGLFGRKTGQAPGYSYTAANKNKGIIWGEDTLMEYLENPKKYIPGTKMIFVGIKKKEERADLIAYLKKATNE

This note sets out measurements from article doi:10.1101/2023.05.01.538962.

No constants are given. Whether binding was seen depends on the method and setting. Binding seen in cells or lysates may run through a third protein.

Take “cytochrome c (endogenous, AC16 cells) (from UniProt P99999 1-105)”: the binding result is “no binding”.
